Drawing on PubChem BioAssay AID2685 (National Center for Advancing Translational Sciences (NCATS), 2010), this text covers cell number change and AC50 for 54 molecules.

Structures are written as SMILES. Where “and” joins values, the source holds several entries; their conditions need not be identical. Equal entries are not always repeated. Some of the results follow. Shown are side measurements of this screen, not its main read-out; they come without a call. Compounds called inactive in the main read-out are mostly missing here. Potencies come from curve fits of mixed quality, noted in brackets.

The experiment is described as follows: qHTS Assay for Lipid Storage Modulators in Drosophila S3 Cells.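 On cell number change: cells counted by Cell Tracker Red CMTPX staining in the red channel.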 The note with it: BODIPY lipid droplet fluorescence, 18-24 h; for cell number change: measured here: cell count max response, cells fed with added oleic acid. In a few lines:
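Drosophila S3 cells got compounds at several concentrations plus oleic acid (400 uM solution). Laser-scanning cytometry with 488 nm excitation read lipid droplets at 500-530 nm and cells at 575-640 nm. Percent activity was relative to 20 uM Triacsin C.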

Where [1] appears, read: measured here: lipid fluorescence (Fed channel) AC50, cells fed with added oleic acid.
Where [2] appears, read: measured here: cell number channel AC50, cells fed with added oleic acid.

A word on the AC50: it is the concentration at which the activity in the assay is half-maximal. Read a low AC50 as activity at low concentration. For the molecule `Cc1ccc2nc(-c3ccccn3)cc(C(=O)Nc3ccc(S(=O)(=O)N4CCOCC4)cc3)c2c1`, the cell number change is 32.8%. Besides, the AC50 under setting [1] was 0.326 µM [falling, single point].
Consider `CCn1ncc(Br)c1C(=O)Nc1ccccc1C(F)(F)F`, for which, under setting [1], the AC50 is 0.58 µM [rising, single point].
Turning to `CCOc1ccc(NC(=O)C2CCC(CNc3c(N4CCOCC4)c(=O)c3=O)CC2)cc1` (stereo not given), the cell number change is -31.8%. For the same molecule, under setting [2], the AC50 is 0.00461 µM [falling, full curve, poor fit]. Under setting [1], the AC50 was 4.61 µM [falling, partial curve].
Turning to `COc1ccc(NC(=O)CCSc2nc(C)cs2)cc1`, the cell number change was -1.57%. For the same molecule, the AC50 under setting [1] was 29.1 µM [rising, single point].
Regarding `Cc1ccccc1NS(=O)(=O)c1ccc(C(=O)N2CCN(c3ccccc3O)CC2)cc1`, the cell number change was -40.1%. Besides, the AC50 under setting [2] was 22.4 µM [falling, single point]. For the same molecule, the AC50 under setting [1] was 35.5 µM [falling, single point].
Regarding `Cc1ccc2nc(N(CCN(C)C)C(=O)/C=C/c3cccs3)sc2c1`, the cell number change was -7.45%. Moreover, the AC50 under setting [1] was 6.51 µM [rising, single point].
Consider `O=C(CC1CC2CCC1C2)N1CCN(S(=O)(=O)c2ccccc2C(F)(F)F)CC1` (stereo not given), for which the cell number change is -72.2%. Moreover, the AC50 under setting [2] was 18.4 µM [falling, partial curve]. Moreover, under setting [1], the AC50 is 0.0461 µM [falling, full curve].
`CCOC(=O)c1[nH]c2ccccc2c1NC(=S)Nc1cccc(C)c1C`: the cell number change was -1.84%. Further, the AC50 under setting [1] is 20.6 µM [rising, single point].
With `CC(=O)CSc1nnc(NC(=O)CCc2ccccc2)s1`, the cell number change was -7.8%. In addition, the half-maximal activity concentration (AC50) under setting [2] was 0.13 µM [falling, full curve, poor fit]. For the same molecule, the AC50 under setting [1] is 0.731 µM [rising, full curve].
With `O=C(NC(=S)Nc1ccc(O)cc1)C1CCCC1`, the cell number change worked out at 5.04%. Also, under setting [1], the AC50 was 11.6 µM [rising, partial curve, poor fit].
For the molecule `COc1ccccc1N1CCN(C(=O)CCCCCn2c(=O)[nH]c3ccsc3c2=O)CC1`, the cell number change was 31.9%. Further, the AC50 under setting [2] was 29.1 µM [rising, single point]. Besides, the AC50 under setting [1] was 29.1 µM [rising, single point].
As for `CCN1CCN(c2oc(-c3ccccc3C)nc2S(=O)(=O)c2ccccc2)CC1`, the cell number change was -31.3%. Further, under setting [2], the AC50 is 0.0058 µM [falling, full curve, poor fit].
In the case of `CCOc1ccc(OCC)c(NC(=O)C2CCN(c3ncccn3)CC2)c1`, the cell number change amounted to 9.71%. Further, the AC50 under setting [1] is 32.6 µM [rising, partial curve, poor fit].
On to `c1coc(Cn2c(SCc3nc4ccccc4[nH]3)nnc2-c2cccs2)c1`, for which the cell number change was 0.641%. Further, the AC50 under setting [1] is 7.31 µM [rising, partial curve].
`CCN=C1SC(CC(=O)Nc2ccc(C(F)(F)F)cc2)C(=O)N1CC` (stereo not given): the cell number change was -32.5%. The AC50 under setting [2] was 20.6 µM [falling, single point]. Under setting [1], the AC50 is 29.1 µM [falling, single point].
Regarding `Oc1ccc2ccccc2c1C=Nc1ccccc1`, the cell number change is -1.23%.
For the molecule `COC(=O)c1cc(C(=O)Nc2ccc(C)cn2)cc([N+](=O)[O-])c1`, the AC50 under setting [1] was 3.66 µM [rising, partial curve, poor fit].
With `Cc1ccccc1NC(=O)CCN1C(=O)c2ccccc2C1=O`, the cell number change was -11%.
Turning to `O=C(COC(=O)C1CCN(c2ccc(C(F)(F)F)cn2)CC1)NCc1ccc(F)cc1`, the cell number change worked out at 14.5%.
In the case of `Cc1ccc2c(c1)N(C(C)C(=O)NCc1ccccn1)C(=O)CO2` (stereo not given), the cell number change is 5.02%. Also, the AC50 under setting [2] is 1.16 µM [rising, full curve, poor fit].
`O=C(c1cccc(F)c1)N1CCCN(C(=O)c2cccc(F)c2)CC1`: the cell number change was found to be 2.91%. The AC50 under setting [1] is 0.82 µM [falling, single point].
On to `CN(C)CCCN(C(=O)c1sc2ccccc2c1Cl)c1nc2ccc(F)cc2s1`, for which the cell number change is -34.3%. Further, the AC50 under setting [2] was 32.6 µM [falling, single point]. For the same molecule, the AC50 under setting [1] is 0.651 µM [falling, partial curve, poor fit].
`N#C/C(=C\c1ccc(F)cc1)C(=O)Nc1ccccn1`: the cell number change is -11.3%. The concentration at half-maximal activity (AC50) under setting [1] was 1.84 µM [falling, partial curve, poor fit].
As to `Cc1ccc(NC2=CC(=O)CCC2)cc1C`, the cell number change stood at 48%. Further, the AC50 under setting [2] is 2.31 µM [rising, full curve]. Further, the AC50 under setting [1] was 0.58 µM [falling, single point].
On to `COCCSc1ccccc1C(=O)Nc1ccccc1C#N`, for which the cell number change turned out to be 18.6%.
Regarding `C=CCn1cnc2c(c1=O)c1nc3ccccc3nc1n2/N=C/c1cccc(OC)c1`, the cell number change turned out to be 24.2%. For the same molecule, the AC50 under setting [2] was 0.092 µM [rising, full curve, poor fit]. Further, under setting [1], the AC50 is 0.259 µM [rising, full curve].
In the case of `Cc1ccccc1N(C(=O)c1ccccn1)C(C(=O)NCc1ccccc1)c1ccncc1` (stereo not given), the cell number change was 12.4%.
In the case of `CCN(C(=O)COC(=O)c1ccc(=O)n(Cc2ccccc2)n1)C1CCCCC1`, the cell number change is -5.58%. Further, the AC50 under setting [1] was 0.0058 µM [falling, full curve, poor fit].
Regarding `CCOc1cc(N2CCOCC2)c(OCC)cc1NC(=O)CCS(=O)(=O)c1ccc(Cl)cc1`, the cell number change is -5.67%. The AC50 under setting [1] was 0.058 µM [rising, full curve].
On to `COc1ccc(-c2cc(OC(=O)c3ccc(F)cc3)c3c(C)oc(C)c3c(=O)c2)cc1`, for which the cell number change turned out to be 6.93%. The AC50 under setting [1] was 29.1 µM [falling, single point].
As for `O=C(c1ccco1)N1N=C(c2ccc(Br)cc2)CC1c1ccco1` (stereo not given), the cell number change was -17.9%. Besides, under setting [1], the AC50 is 6.51 µM [rising, partial curve, poor fit].
Turning to `CC(=O)OCC(=O)[C@@]12OC(C)(C)O[C@@H]1CC1C3C[C@H](F)C4=CC(=O)C=CC4(C)[C@@]3(F)C(O)CC12C` (stereo not given in full), the cell number change is 28.4%. The AC50 under setting [1] is 0.651 µM [rising, full curve, poor fit].
In the case of `CCOc1ccc(-c2noc(CCC(=O)NCCc3ccccc3)n2)cc1OC`, the cell number change was -23.6%. The AC50 under setting [1] was 32.6 µM [falling, single point].
Consider `N=c1c2c(-c3ccccc3)c(-c3ccccc3)n(Cc3ccco3)c2ncn1CCCN1CCOCC1`, for which the cell number change is -5.2%. For the same molecule, the AC50 under setting [1] was 6.51 µM [rising, single point].
As to `O=C(NCc1ccc(Cl)cc1)c1cc2c(nc3sccn32)s1`, the cell number change is -7.64%. Further, the AC50 under setting [1] is 3.26 µM [rising, single point].
Turning to `COc1ccccc1NC(=S)NNC(=O)c1cc(C)n(C)n1`, the cell number change stood at 83.9%. Also, under setting [2], the AC50 was 1.03 µM [rising, full curve]. The AC50 under setting [1] is 1.3 µM [rising, full curve].
`COc1ccc(OCC(=O)Nc2ccc(N3CCOCC3)c(Cl)c2)cc1`: the cell number change was determined as 114%. The AC50 under setting [2] is 18.4 µM [rising, single point].
On to `COc1ccc(OCc2n(CC(=O)OC3CC(C)CCC3C(C)C)c3ccccc3[n+]2C)cc1` (stereo not given), for which the cell number change was -62.2%. In addition, the AC50 under setting [2] was 8.2 µM [falling, partial curve, poor fit]. In addition, the AC50 under setting [1] was 23.1 µM [falling, partial curve].
Take `Cn1c(=O)n(Cc2ccccc2F)c(=O)c2c1nc1n2CCCN1CCc1ccccc1`: the cell number change worked out at 69.4%. Besides, the AC50 under setting [2] is 29.1 µM [rising, single point]. Under setting [1], the AC50 was 2.06 µM [rising, partial curve].
Turning to `CCOc1cccc(C(=O)N2CCCCC2c2cccnc2)c1` (stereo not given), the AC50 under setting [1] was 0.13 µM [rising, full curve, poor fit].
For `CCN(CC)c1ccc(NC(=O)CN2C(=O)CSc3ncccc32)c(C)c1`, the cell number change is -79.2%. For the same molecule, the AC50 under setting [2] was 14.6 µM [falling, partial curve]. Besides, the AC50 under setting [1] was 10.3 µM [falling, partial curve].
As to `COc1ccc(OC)c(/C=C2\SC(=S)N(NS(=O)(=O)c3ccc(C)cc3)C2=O)c1`, the cell number change is -16.1%. In addition, the AC50 under setting [1] is 5.17 µM [falling, full curve, poor fit].
Turning to `O=c1cc(CSc2ccc(Cl)cc2)nc(-c2ccccn2)[nH]1`, the cell number change is -27.2%. Also, the AC50 under setting [1] is 18.4 µM [falling, single point].
For the molecule `COCCCC/C(=N\OCCN)c1ccc(C(F)(F)F)cc1`, the half-maximal activity concentration (AC50) by setting is: under setting [2], 32.6 µM [rising, single point]; under setting [1], 920 nM [falling, full curve, poor fit] and 29.1 µM [rising, single point].
Consider `COc1ccc(-c2noc(CCN3C(=O)c4ccccc4C3=O)n2)cc1OC`, for which the AC50 under setting [2] is 1.84 µM [rising, partial curve] and the AC50 under setting [1] was 1.84 µM [rising, partial curve].
On to `COc1ccccc1OCCCCNCCO`, for which the cell number change was found to be 5%. Moreover, the AC50 under setting [1] is 3.66 µM [falling, full curve].
Turning to `CCOC(=O)C1CCCN(C(=O)CN(c2ccc(OC)cc2)S(=O)(=O)c2c(C)noc2C)C1` (stereo not given), the cell number change turned out to be 35.9%. Moreover, under setting [2], the AC50 is 11.6 µM [rising, single point]. The AC50 under setting [1] is 20.6 µM [rising, single point].
For the molecule `CCCC(c1nnnn1Cc1cccs1)N1CCN(C2CCCC2)CC1` (stereo not given), the cell number change came to 12.1%. Under setting [1], the AC50 is 4.61 µM [falling, single point].
With `CC1=NN(C(N)=S)C(=O)C1N=Nc1ccc(C)c(Br)c1` (stereo not given), the cell number change is -61.5%. Further, the AC50 under setting [2] is 1.64 µM [falling, partial curve, poor fit]. The AC50 under setting [1] is 1.46 µM [falling, partial curve].
Take `Cc1ccc(C(CC(=O)c2ccc(Cl)cc2)C(=O)O)cc1` (stereo not given): the AC50 under setting [1] is 0.00461 µM [falling, full curve, poor fit].
For the molecule `COc1ccccc1NCC(=O)N/N=C(\C)c1ccc(Br)s1`, the cell number change is -41%. The AC50 under setting [2] is 29.1 µM [falling, single point]. For the same molecule, the AC50 under setting [1] is 0.92 µM [rising, partial curve].
Regarding `CCc1ccccc1NC(=S)N(CCN(C)C)Cc1cccs1`, the cell number change came out at 17.4%. In addition, the AC50 under setting [1] was 0.00517 µM [rising, full curve, poor fit].
Take `CCOc1cc(S(=O)(=O)NCCc2ccccc2C)c(OCC)cc1-n1cnnn1`: the cell number change is -4.53%. Further, under setting [1], the AC50 was 2.91 µM [rising, single point].
In the case of `CCc1cccc(CC)c1NC(=O)CN1CCN(c2ccccc2)CC1`, the cell number change turned out to be 0.214%. Further, the AC50 under setting [1] is 0.116 µM [rising, full curve, poor fit].
